Assay results reported in PubChem BioAssay AID651660 (Broad Institute, 2012).
Where “and” joins values, the source holds several entries; their conditions need not be identical. Equal values may be shown once. Out of some 1,900 compounds screened, about 15 (0.8%) were called active.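 How the source made its calls: active means every replicate shows at least 50% inhibition; inconclusive means mean inhibition at least 50% but some replicate below; inactive means the rest.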 This is one part of the list. Residues, ends and D or L forms follow the SMILES beside them. *: point of attachment. Boc = CC(C)(C)OC(=O)*; OBn = c1ccc(CO*)cc1

The chains behind the UniProt entries cited, without tags or fusion partners. Where a name states a change or a piece, a line headed by the entry shows the natural chain unless it says otherwise.
UniProt P43351: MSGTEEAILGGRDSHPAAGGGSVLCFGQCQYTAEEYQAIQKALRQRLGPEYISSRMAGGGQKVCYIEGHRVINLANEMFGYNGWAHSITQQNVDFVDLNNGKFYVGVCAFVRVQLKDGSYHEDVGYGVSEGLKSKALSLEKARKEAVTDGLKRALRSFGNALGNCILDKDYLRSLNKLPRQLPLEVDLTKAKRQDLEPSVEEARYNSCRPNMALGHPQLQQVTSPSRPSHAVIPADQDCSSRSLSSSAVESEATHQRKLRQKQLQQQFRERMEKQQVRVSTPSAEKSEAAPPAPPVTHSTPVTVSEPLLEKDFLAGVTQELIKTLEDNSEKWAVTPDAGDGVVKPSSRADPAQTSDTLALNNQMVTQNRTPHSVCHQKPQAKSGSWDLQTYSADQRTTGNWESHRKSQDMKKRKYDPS

target: DNA repair protein RAD52 homolog (Homo sapiens) (UniProt P43351); assay: RAD52 ssDNA annealing inhibitors, primary screen, biochemical, FRET, single point (AID 651660); details: Recombinant RAD52 ssDNA annealing, FRET fluorescence, 30 min; at 18.7 µM; active compounds read high;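 further: 0% = median of neutral control wells and 100% = median of positive control wells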

inhibition, inactive:
O=C(/C=C/c1ccco1)Nc1ccccc1C(=O)O -76.5%
c1coc(-c2nnc3n2C2(CCCC2)Cc2ccccc2-3)c1 -1.46%
CCCCCCC(=O)N(O)C1CC(=O)N(Cc2ccccc2)C1=O (stereo not drawn) -13.2%
O=C(CN1C(=O)c2ccccc2S1(=O)=O)Nc1ccccc1 -5.83%
COc1cc2c(cc1OC)-c1nnc(C)n1C(C)(C)C2 -0.769%
CCOCC(=O)Nc1ccccc1C(=O)N1CCOCC1 -4.04%
O=C(O)/C=C/c1cccc(OCc2ccccc2)c1 -1.88%
C#C[C@]1(O)CC[C@H]2[C@@H]3CCc4cc(OC)ccc4[C@H]3CC[C@@]21C -9.72%
CCOC(=O)Nc1ccc2c(c1)N(C(=O)CCN1CCOCC1)c1ccccc1S2 0.165%
O=C(O)CCn1c(=S)n(CCC(=O)O)c2ccccc21 -0.306%
CC1(CC(=O)Nc2ccccc2)NC(=S)N(c2ccccc2)N1 (stereo not drawn) -0.205%
CN=C(NC#N)NCCSCc1nc[nH]c1C -0.437%
CCC(C)NCCOCCOc1ccc(Cl)c2ccccc12 (stereo not drawn) 37.3%
CCOC(=O)c1cnc2ccccc2c1NCCO 10.9%
COc1ccc(-c2csc(-c3cccnc3)n2)cc1C -4.39%
COc1ccc(C2(CCN=Cc3ccc(N(C)C)cc3)CCOC(C)(C)C2)cc1 (stereo not drawn) -21.1%
COc1ccc(C(=O)Nc2ccccc2C(=O)NCCCn2ccnc2)cc1 0.256%
CC(C)CC(NC(=O)C(NC(=O)OC(C)(C)C)C(C)C)C(=O)NC(CCC(=O)OCc1ccccc1)C(N)=O (stereo not drawn) (Boc-Val-Leu-Glu(OBn)-NH2; configuration not given here) -6.12%
O=C(CC1SC(=O)NC1=O)Nc1ccc(Cl)cc1 (stereo not drawn) -7.21%
COc1ccc(Br)cc1C(=O)Nc1ccc(C(=O)O)cc1 -5.54%
COc1cc([C@@H]2c3cc4c(cc3[C@H](O)[C@H]3COC(=O)[C@H]23)OCO4)cc(OC)c1OC -89.4%
COc1ccc(NC(=O)CC(c2ccccc2)c2ccco2)cc1 (stereo not drawn) -8.33%
COc1cc(OC)c2c(C)c(Cl)c(=O)oc2c1 -4.97%
CCOc1ccc2oc(-c3ccccc3)c(C(=O)O)c2c1 -1.63%
CC[C@H]1CN2CCc3cc(OC)c(OC)cc3[C@@H]2C[C@@H]1C[C@H]1NCCc2cc(OC)c(OC)cc21 4.86%
CCN(CC)CCNC(=O)c1ccc(NC(C)=O)cc1 0.0885% and -5.25%
COc1ccc(CCNC(=O)C(=O)Nc2ccc3c(c2)OCO3)cc1OC -0.306%
Cn1c2ccccc2c2cc(/C=C(\NC(=O)c3ccccc3)C(=O)O)ccc21 -10.8%
CNC[C@H](O)c1cccc(O)c1 7.82%
COc1ccc2[nH]c(CN3CCN(CC(C)C)C(CCO)C3)c(C)c2c1 (stereo not drawn) -14.8%
O=C(/C=C/c1ccc(F)cc1)NC(=S)N1CCCCC1c1cccnc1 (stereo not drawn) -4.65%
O=C(NC1CCCCC1)c1cc2nc(-c3ccco3)cc(C(F)(F)F)n2n1 -299%
Cc1c(OCC(F)(F)F)ccnc1CS(=O)c1nc2ccccc2[nH]1 (stereo not drawn) -14.2%
O=C(c1ccc(-c2ccccc2)c(F)c1)C1CCCN(C(=O)c2cncs2)C1 (stereo not drawn) -5.72%
COc1ccc(C(=O)COc2ccc(F)cc2)c(O)c1 -11.9%
COc1ccc2c(c1OC)C(=O)N1C2SC[C@H]1C(=O)NC1CC(C)(C)NC(C)(C)C1 (stereo partly drawn) -12.4%
CC(C)OC(=O)c1ccc(NC(=O)c2cncc(Br)c2)cc1 5.94%
O=C(O)COc1ccc2occ(C(=O)c3ccccc3)c2c1 -10.4%
CN(C)c1ccc(Nc2c3c4c(cccc4n(C)c2=O)C(=O)c2ccccc2-3)cc1 -136%
COC(=O)c1sccc1NC(=O)Nc1ccccc1F -4.3%
CCN(CC)c1ccc([C@H]2[C@@H]3CCCC[C@]3(O)CCN2CC(=O)NCc2ccco2)cc1 -20.6%
COc1cc(-c2cccs2)cc(=O)c2c(C)oc(C)c12 -80.9%
O=Cc1ccccc1Oc1ccccc1 5.83%
COc1cc(=O)n(C)c2ccccc12 -3.21%
COc1ccc(N2C(=O)C3CCCN3C2=O)cc1 (stereo not drawn) -5.53%
Cc1cc(C(=O)Nc2ccccc2C(=O)N2CCCCC2)ccc1[N+](=O)[O-] 1.77%
CN(Cc1ccccc1)CC(O)COc1ccc(CNCc2cccnc2)cc1 (stereo not drawn) 25.5%
CCOC(=O)C1(CCCc2ccccc2)CCN(C2CCN(C(C)=O)CC2)CC1 7.76%
COc1ccc2[nH]c3c(c2c1)CCNC3C1CC=C(C)CC1 (stereo not drawn) -2.2%
CN(C)CCN(Cc1cccs1)c1ccccn1 2.61%
CCNC(=O)C12CCC(C)(C(=O)O1)C2(C)C (stereo not drawn) -8.08%
COc1cc2c(cc1OC)C(c1cc3ccccc3oc1=O)=NC(C)(C)C2 -3.56%
CCOc1cc2oc(=O)c3c(c2cc1Cl)CCC3 -1.74%
COc1ccc2oc(-c3ccco3)cc(=O)c2c1 -16.1%
NC(=O)N1c2ccccc2C=Cc2ccccc21 -2.44%
COc1cc(C2NCCc3c2[nH]c2ccccc32)ccc1OC(C)C (stereo not drawn) 1.55%
CC(C)(C)N(Cc1ccccc1)C(=O)c1ccc(Br)o1 -0.336%
COc1ccc(CN(CCN(C)C)c2ccccn2)cc1 -2.8%
CCOC(=O)C(Cc1cc(C(C)=O)ccc1OC(C)C)C(=O)OCC -7.77%
CCCNC(C)C(=O)Nc1ccccc1C (stereo not drawn) -1.36%
CC(COc1ccccc1)N(CCCl)Cc1ccccc1 (stereo not drawn) 3.95%
CN(CCO)CC(O)Cn1cnc2c1c(=O)n(C)c(=O)n2C (stereo not drawn) (tested in a mixture with another compound) -12.6%
CCCCC[C@H](O)/C=C/[C@@H]1[C@@H](C/C=C\CCCC(=O)O)[C@@H](O)C[C@H]1O -9.24%
Cc1nc(C(=O)Nc2ccccc2Cl)cc2c1[nH]c1ccccc12 -14%
O=C1NC2(Nc3ccccc31)C(=O)Nc1ccc(Br)cc12 (stereo not drawn) -0.104%
COc1ccc2c(c1OC)C(=O)NC(C)=C(C(=O)OC(C)(C)C)C2O (stereo not drawn) -15.6%
CC(=O)NC(Cc1ccccc1)C(=O)OCC(=O)c1ccccc1 (stereo not drawn) -8.26%
COc1ccc(C(=O)/C=C/c2ccc(OC(=O)c3cc(OC)c(OC)c(OC)c3)cc2)cc1 -50.8%
Cc1ccc2occ(C(=O)c3ccco3)c(=O)c2c1 -5.74%
O=C(NC(CO)Cc1ccc([N+](=O)[O-])cc1)C(Cl)Cl (stereo not drawn) -1.53%
COc1cccc(C2CC(=O)C3=C(C2)Nc2ccccc2N(C(=O)CCC(=O)O)C3c2ccc(F)cc2)c1 (stereo not drawn) -5.48%
CC(=O)NC(NC(=S)N1CCCCCC1)C(Cl)(Cl)Cl (stereo not drawn) -5.92%
COc1ccc(-c2nc(C)c(C(C)=O)n2O)cc1OC -4.44%
Cc1cnc(C(=O)N2CCCC(C(=O)c3ccc(Cl)cc3C)C2)cn1 (stereo not drawn) 3.18%
O=C(Cc1ccccc1)NCC(=O)OCC(=O)c1ccccc1Cl -10%
Cn1c(Oc2ccc3c(c2)OCO3)nc2c1c(=O)n(Cc1ccccc1)c(=O)n2C 3.48%
CCOc1ccc(C(=O)Nc2ccc(N3CCN(C(C)=O)CC3)cc2)cc1[N+](=O)[O-] -3.31%
Fc1cccc(Cc2noc(CN3CCN(c4cnccn4)CC3)n2)c1 -5.8%
COc1ccc2c(=O)c(-c3cnn(-c4ccccc4)c3)c(C)oc2c1 -8.23%
CC(C)(C)NC[C@H](O)COc1nsnc1N1CCOCC1 -3.38%
C[C@]12CCC(=O)C=C1CC[C@@H]1[C@@H]2[C@@H](O)C[C@@]2(C)[C@H]1CC[C@]2(O)C(=O)COC(=O)CCC(=O)O 1.61%
O=C(O)[C@H](Cc1ccccc1)NC(=O)N1CCC(Cc2ccccc2)CC1 -7.5%
COc1ccc(CC(=O)NCC2(c3ccc(OC)c(OC)c3)CCOCC2)cc1 -3.96%
COc1cc(COc2ccc3c(C)c(Cc4ccccc4)c(=O)oc3c2)cc(OC)c1OC -0.647%
CCOc1ccc2nc(NC(=O)NC3CCCCC3)sc2c1 -0.863%
CC(C)Cc1cc(C(=O)N2CCC(N3CCC(C(=O)N4CCCC4)CC3)CC2)n[nH]1 -14.1%
Nc1nc(SCc2ccc([N+](=O)[O-])cc2)c2ncn(C3OC(CO)C(O)C3O)c2n1 (stereo not drawn) -11%
O=C(N1CCCCC1)C1(c2ccccc2)CCOCC1 2.83%
CCCC(=O)Nc1ncnc2c1ncn2[C@@H]1O[C@@H]2COP(=O)(O)O[C@H]2[C@H]1OC(=O)CCC -4.1%
Cc1ccc(CN2CCN(Cc3cn[nH]c3C3CCCCC3)CC2CCO)cc1 (stereo not drawn) 5.04%
CCc1cccc(OC2OC(CO)C(O)C(O)C2NC(C)=O)c1 (stereo not drawn) -3.23%
C=CCc1cccc2cc(C(=O)Nc3ccc(CC(=O)O)cc3)c(=O)oc12 -2.75%
CCCc1c(OCCCCc2nn[nH]n2)ccc(C(C)=O)c1O -4.88%

No new results follow: an excerpt of the list.
inhibition, inactive:
CCOC(=O)c1cnc2ccccc2c1NCCO 10.9%
COc1ccc(-c2csc(-c3cccnc3)n2)cc1C -4.39%
COc1ccc(C2(CCN=Cc3ccc(N(C)C)cc3)CCOC(C)(C)C2)cc1 (stereo not drawn) -21.1%
COc1ccc(C(=O)Nc2ccccc2C(=O)NCCCn2ccnc2)cc1 0.256%
CC(C)CC(NC(=O)C(NC(=O)OC(C)(C)C)C(C)C)C(=O)NC(CCC(=O)OCc1ccccc1)C(N)=O (stereo not drawn) (Boc-Val-Leu-Glu(OBn)-NH2; configuration not given here) -6.12%
O=C(CC1SC(=O)NC1=O)Nc1ccc(Cl)cc1 (stereo not drawn) -7.21%
